Assay results taken from the supplement of paper PMC5949888.
Most values lie at the floor of the assay. Slopes are relative: functional sequences can read slightly below zero.

The substances below were run on Saccharomyces cerevisiae PS128 hsf1 delta, HSF1(1-493) fusion (assay: growth estimate (transactivation domain function in HSF1 fusion, heat-shock survival) (a.u. (slope of normalised read count over time)); higher = stronger growth at 37°C, i.e. more transactivation activity). Settings: library: random library.
Experimental: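 Random 60-nt DNA library encoding peptides of up to 20 aa, fused to the C-terminus of yeast HSF1 residues 1-493 (C-terminal TAD deleted) and expressed from the native HSF1 promoter on a CEN plasmid in hsf1-deleted S. cerevisiae PS128. Cells were selected at 37°C on -trp 5-FOA plates for 0, 2, 4, 6 and 8 days and amplicons were sequenced. Growth estimate is the slope of a robust linear fit of total-sum-normalised read counts (normalised to the first time point) over time, using at least 2 replicates. Sequences are classed functional (TAD activity) above a threshold of -0.13, set from stop-codon control sequences.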

Substance	growth estimate
RSAGLRTGWYRRGALVSSER	< -0.25
QGVRT	< -0.25
KRNWIIEDGLCSSRRGPGAT	< -0.25
PLTP	-0.243
VKSNFGSYTLG	< -0.25
IPDHKAQS	< -0.25
WPARGPYTRNFAGLFPFMTV	< -0.25
LMGHERCPVWLGKLERTT	< -0.25
PSGVGGDTTVAAGGLNMHSI	< -0.25
LPS	< -0.25
RQIRKLIPATTELVSQYLQR	< -0.25
YEQGMRRHSHC	< -0.25
RGATQGVLCDVRGYDWDDIT	< -0.25
CKHGDHILCRPRQ	< -0.25
RVSSGEDAFPLRILRPC	< -0.253
DRLPEWRRDVKLVNWLGGKR	< -0.25
ARDSPIIGMYGLRSRYVKYP	< -0.25
LSY	< -0.25
KSEWSWVAPRLVSR	< -0.25
GCRPR	< -0.25
GQATWLFRSNGSRGSSVSAP	< -0.25
RPTICDDKYKKKP	< -0.25
VPRRSV	< -0.25
IKSASKRAANSKTYNRYALG	< -0.25
PHKPSLSRGTHESRCRCNPR	< -0.25

Substance	growth estimate
LGLSKTGMVSPSCTIYATCP	< -0.25
DVYNFNVKDHIGVLVGHEAA	< -0.25
TLTKSRSHVTARNVMACCPD	< -0.25
RVFVGVGRAYTTAGC	< -0.25
TWLKVTLSWGVVTY	< -0.25
RGKPKARGRRISTINKQLSE	0.0112
GCLKF	< -0.25
FVIIGELSLGGNGGVTSLCE	< -0.25
VGSPSQISCIMRERFLLQR	< -0.25
LERGHKCTEIWSPKLLSRRF	< -0.25
GIWRVLTDLGSTRSKGCQRV	< -0.25
SITGSLDRCSPNDETGHGHI	-0.19
GPCWASKRLTNVAMISLWVR	< -0.25
PWIHQWSHDLISSWLVCSFK	< -0.25
TVQAGRRAVFR	< -0.25
TLDSPTSAPVPGSMAVTQRS	< -0.25
EQGILSGLRRMVLNDTRALV	< -0.25
THVRGPSA	< -0.25
SSGAWRLHESCSGTSRVHHQ	-0.246
SRDGGSPCAPYGIRSPCKLG	< -0.25
LIGACAWACCLRASGTCE	< -0.25
PCFYVQRPYSSLRRLNCHVK	< -0.25
VQL	< -0.25
ARSTYRRIAAGSFIAAKML	< -0.25
TYHDSLLRGGREERVYRGGC	< -0.25

Substance	growth estimate
MRDGGSLVQRVVCSTSTPGS	< -0.25
SRHCGPG	< -0.25
IEILGPTAVIALRVKNRKSS	< -0.25
LAP	< -0.25
ITTALFSQIPVIFGRNSGPF	< -0.25
NDMCFDSWST	< -0.25
IVLYWRAH	< -0.25
VIHVFDHSVYTG	< -0.25
NLHRLEVEHFILTSQKSFNG	< -0.25
EALSRHT	-0.182
ERSQRARIPRC	< -0.25
TWTRDFHMFSVARTFHNRCL	< -0.25
YSE	< -0.25
QLIA	< -0.25
LNWLEDALANF	< -0.25
TTKVSRGSHFFRLLLSTYWV	< -0.25
FQHQGALDRSYQHSLTSGYA	< -0.25
TGEPNC	< -0.25
WYDRGGSAG	< -0.25
RKHQLGSTMAGVPDHYAIRF	< -0.25
PTKEPRFLMNQKGKH	< -0.25
REF	< -0.25
DCGCKIRKYVCVQDEMDQRA	< -0.25
CSRRDGSASPPRAHRLDNRM	-0.204
LGAMHADGSAAFKALSRSGP	< -0.25

Random excerpt: 5 records from the list.
Substance	growth estimate
NLHRLEVEHFILTSQKSFNG	< -0.25
SRHCGPG	< -0.25
IVLYWRAH	< -0.25
TWTRDFHMFSVARTFHNRCL	< -0.25
ERSQRARIPRC	< -0.25

Next records.

Substance	growth estimate
VFNIVT	-0.229
GCGSYEKNANP	< -0.25
RFLHLARNIGDWLR	< -0.25
VCASMG	< -0.25
KTNPRPRVTTYGMPMPVGRS	< -0.25
RRKNVVHWMRVVEESGAEPD	< -0.25
DERHLYRITRGSNNRITVLI	< -0.25
WDGSTAAIFDYASGSRTGDN	< -0.25
FNPRAVWGQPMLSILSLAVR	< -0.25
DVTSRRIEKVLRIRHSVYFS	< -0.25
LPPYKK	< -0.25
LETPKGLCAA	-0.246
EKCTAPYYLDGWGASACLSL	< -0.25
VRLGFVGI	< -0.25
AAGSC	< -0.25
CTVIKLYHHF	< -0.25
LEICQVCLQGACQNVTTLQR	< -0.25
NVGCS	< -0.25
RLTI	< -0.25
YSDWIEVRD	< -0.25
RPGVGQSSEKCRGFLTSEHL	< -0.25
CSGTGTNWVVSTSWPAGQW	< -0.25
RADMVQSWVVRVLSGPKLAF	< -0.25
PFPDVSSL	< -0.25
RALVR	< -0.25

Substance	growth estimate
ATVEE	< -0.25
VPN	< -0.25
IGPLVQGGRLAEVC	< -0.25
GRWFML	< -0.25
VAGA	< -0.25
CNRGTVACLLLGEVASQ	< -0.25
ACCPLVEEMTHILKLQESRQ	< -0.25
EFIGESIVFSKTLKPAGFLQ	< -0.25
YVRGTDLSMALLIELNNWGL	< -0.25
KTEACECAGLLPLALLSVLV	< -0.25
PLRPVDRKYPFQ	< -0.25
RRLGLF	< -0.25
RNRSQGPTE	< -0.25
YLGKVRGWTRTSGHPSLPLG	< -0.25
FLVKGDSKSFHCAATSTSDC	< -0.25
WGPPVGPTCQ	< -0.25
HRIFRYAIPGSQGHSTVSSH	< -0.25
KLQLILPLCEVWPFGTVMIA	< -0.25
SEGIYALHYRRQFARIVERP	< -0.25
CSLTFISGNVNVLSIEKREP	< -0.25
MLIAEASTTGCGRHTCNSAQ	< -0.25
DASCYTLVVIAYT	< -0.25
AASGY	< -0.25
AVMRSVRGWCSGSVRSHRQL	< -0.25
RLGIQPS	< -0.25

Substance	growth estimate
GRRGGNATHR	< -0.25
AGAR	< -0.25
PVLLAGSEWASNASLATAK	< -0.25
PAGPDTSCSFEHEGLMDASG	< -0.25
SREG	< -0.25
FARDFP	-0.246
GPCVDPGATRLRL	< -0.25
DRLLAVTREG	< -0.25
IRRVLERLYFSCSSRSNLQE	-0.208
AQG	< -0.25
SRPFIRRYGGVRLSVLTVT	< -0.25
LGGAIR	< -0.25
KHADLLTRISGGVHPYLGTV	< -0.25
YRHE	< -0.25
GVSKFGGI	< -0.25
SGR	< -0.25
DRRDPLRAWEYRRTSETPFG	< -0.25
GKCPNPR	< -0.25
RIYG	< -0.25
CVILQ	< -0.25
TLSGHLVFEPPIVSRTAHRW	< -0.25
GMASSWLCPTSDRQW	< -0.25
IYGVLTRVGQ	< -0.25
AQASGRLGPAFASGIYCYNL	< -0.25
ERQTYTNGTGAHPSSLGRGS	< -0.25

Substance	growth estimate
ELIPSYRTGQF	< -0.25
VSG	< -0.25
FPELSSCRGPAIKRPIALCT	< -0.25
LANLSERVGRTIKDL	< -0.25
TAGN	< -0.25
IAEALV	< -0.25
MHLGVPFWQWVYGLCSH	< -0.25
LRRHDRGQGCWQWRYR	< -0.25
VHRSVRSIISRIGRYDA	-0.168
LLFAREA	< -0.25
LITGH	< -0.25
VRSFVSRGLHR	< -0.25
GHQ	< -0.25
RCVVILRGKAGPGGTRWSV	< -0.25
QLSTFWR	< -0.25
LSSLEFL	< -0.25
QEVGGPLKWDRADVGATGIR	< -0.25
RNGIRRVWEGRVRPHSPRAG	< -0.25
NSTHGTNCTGSPVVLKLPER	< -0.25
PTSEWSSYSYVPGMQGW	-0.182
ATSQRDRSPSVTAKSSEALW	< -0.25
QAGLGGRWKNFMQFARPPAE	< -0.25
EAYRVNLRVSQSIKKSHFER	< -0.25
HRCARAARNSVLIGSPAS	< -0.25
GGQAGGPSWISRHECSKPCR	< -0.25

Substance	growth estimate
KGKHIRVLVCSRQCHIKVVH	< -0.25
YGGTGPWTRQIKKVTATRDI	< -0.25
RHWTSSGTKCMGLLEH	-0.25
PVNVICGAGSQKSLDIPEGI	-0.245
MFYVAPSLLVARSRQSKACD	< -0.25
IFFAAERAMS	< -0.25
HLWVTAQVRAQAEP	< -0.25
WLAQLARGGDPAPYDLSFTR	< -0.25
HMRSICLKPEGLGPVT	< -0.25
TKISFNLWP	< -0.25
PSVISR	< -0.25
ISVTGAMLSNGQRRTNPKLM	< -0.25
RRW	< -0.25
LAS	< -0.25
GRTSYRGAVGMLLISWGHN	< -0.25
CVCTIHPLVWLSFPFCLDLK	< -0.25
MVPYGDF	< -0.25
VIVTSEPRRKRALAMCVHAD	< -0.25
GLGMSAFSLGHGLYAGGFSA	< -0.25

Individual results from the list:
Under growth estimate, RALVR is entered as < -0.25
Under growth estimate, LITGH is entered as < -0.25
Under growth estimate, SRDGGSPCAPYGIRSPCKLG is entered as < -0.25
Under growth estimate, LEICQVCLQGACQNVTTLQR is entered as < -0.25
